The target of this assay is RPS23RG1 (endogenous, mouse brain) (mouse (endogenous in mouse brain synaptosomes)). Briefly: co-IP; mouse brain synaptosome lysates; IP with IgG and an anti-RR1 antibody; immunoblotting. (In general: In western blotting, separated proteins are transferred to a membrane and probed.)

No constants are given. Whether binding was seen depends on the method and setting. Binding seen in cells or lysates may run through a third protein. A result given as binding can be weak or reduced; the word gives no strength.

B1: MDGA2 (endogenous, mouse brain) (protein, UniProt P60755 26-924)
chain: PPTVRIVHSGLACNIEEERYSERVYTIREGETLELTCLVTGHPRPQIRWTKTAGSASDRFQDSSVFNETLRITNIQRHQGGRYYCKAENGLGSPAIKSIRVDVYYLDDPVVTVHQSIGEAKEQFYYERTVFLRCVANSNPPVRYSWRRGQEVLLQGSDKGVEIYEPFFTQGETKILKLKNLRPQDYANYSCIASVRNVCNIPDKMVSFRLSNKTASPSIKLLVDDPIVVNPGEAITLVCVTTGGEPTPSLTWVRSFGTLPEKIVLNGGTLTIPAITSDDAGTYSCIANNNVGNPAKKSTNIIVRALKKGRFWITPDPYHKDDNIQIGREVKISCQVEAVPSEELTFSWFKNGRPLRSSERMVITQTDPDVSPGTTNLDIIDLKFTDFGTYTCVASLKGGGISDISIDVNISSSTVPPNLTVPQEKSPLVTREGDTIELQCQVTGKPKPIILWSRADKEVAMPDGTMQMESYDGTLRIVNVSREMSGMYRCQTSQYNGFNVKPREALVQLIVQYPPAVEPAFLEIRQGQDRSVTMSCRVLRAYPIRVLTYEWRLGNKLLRTGQFDSQEYTEYPLKSLSNENYGVYNCSIINEAGAGRCSFLVTGKAYAPEFYYDTYNPVWQNRHRVYSYSLQWTQMNPDAVDRIVAYRLGIRQAGQQRWWEQEIKINGNIQKGELITYNLTELIKPEAYEVRLTPLTKFGEGDSTIRVIKYTGEFHCGFEDGNICLFTQDDTDNFDWTKQSTATRNTKYTPNTGPSADRSGSKEGFYMYIETSRPRLEGEKARLLSPVFSIAPKNPYGPTNSAYCFSFFYHMYGQHIGVLNVYLRLKGQTTIENPLWSSSGNKGQRWNEAHVNIYPITSFQLIFEGIRGPGIEGDIAIDDVSIAEGECAKQDLPTKNSVD
On to B1, for which the binding entry is reported as “binds”.

B2: SHANK2 (endogenous, mouse brain synaptosomes) (protein, UniProt Q80Z38 1-1476)
chain: MKSLLNAFTKKEVPFREAPAYSNRRRRPPNTLAAPRVLLRSNSDNNLNAGAPEWAVCSAATSHRSLSPQLLQQTPSKPDGATKSLGSYTPGPRSRSPSLNRLGGTAEDGKRTQPHWHVGSPFTPGANKDSLSTFEYPGPRRKLYSAVPGRLFVAVKPYQPQVDGEIPLHRGDRVKVLSIGEGGFWEGSARGHIGWFPAECVEEVQCKPRDSQAETRADRSKKLFRHYTVGSYDSFDAASDCIIEDKTVVLQKKDNEGFGFVLRGAKADTPIEEFTPTPAFPALQYLESVDEGGVAWQAGLRTGDFLIEVNNENVVKVGHRQVVNMIRQGGNHLILKVVTVTRNLDPDDTARKKAPPPPKRAPTTALTLRSKSMTAELEELGLSLVDKASVRKKKDKPEEIVPASKPSRTAENVAIESRVATIKQRPTSRCFPAASDVNSVYERQGIAVMTPTVPGSPKGPFLGLPRGTMRRQKSIDSRIFLSGITEEERQFLAPPMLKFTRSLSMPDTSEDIPPPPQSVPPSPPPPSPTTYNCPRSPTPRVYGTIKPAFNQNPVVAKVPPATRSDTVATMMREKGMFYRRELDRFSLDSEDVYSRSPAPQAAFRTKRGQMPENPYSEVGKIASKAVYVPAKPARRKGVLVKQSNVEDSPEKTCSIPIPTIIVKEPSTSSSGKSSQGSSMEIDPQATEPGQLRPDDSLTVSSPFAAAIAGAVRDREKRLEARRNSPAFLSTDLGDEDVGLGPPAPRMQASKFPEEGGFGDEDETEQPLLPTPGAAPRELENHFLGGGEAGAQGEAGGPLSSTSKAKGPESGPAAPLKSSSPAGPENYVHPLTGRLLDPSSPLALALSARDRAMQESQQGHKGEAPKADLNKPLYIDTKMRPSVESGFPPVTRQNTRGPLRRQETENKYETDLGKDRRADDKKNMLINIVDTAQQKSAGLLMVHTVDVPMAGPPLEEEEDREDGDTKPDHSPSTVPEGVPKTEGALQISAAPEPAVAPGRTIVAAGSVEEAVILPFRIPPPPLASVDLDEDFLFTEPLPPPLEFANSFDIPDDRAASVPALADLVKQKKNDTSQPPTLNSSQPANSTDSKKPAGISNCLPSSFLPPPESFDAVTDSGIEEVDSRSSSDHHLETTSTISTVSSISTLSSEGGESMDTCTVYADGQAFVVDKPPVPPKPKMKPIVHKSNALYQDTLPEEDTDGFVIPPPAPPPPPGSAQAGVAKVIQPRTSKLWGDVPEVKSPILSGPKANVISELNSILQQMNRGKSVKPGEGLELPVGAKSANLAPRSPEVMSTVSGTRSTTVTFTVRPGTSQPITLQSRPPDYESRTSGPRRAPSPVVSPTELSKEILPTPPPPSATAASPSPTLSDVFSLPSQSPAGDLFGLNPAGRSRSPSPSILQQPISNKPFTTKPVHLWTKPDVADWLESLNLGEHKETFMDNEIDGSHLPNLQKEDLIDLGVTRVGHRMNIERALKQLLDR
Turning to B2, the binding result was “no binding”.

For the origin of these results see publication PMC11729561.
